Results: patent US10004770B2, “Production and use of bacterial histamine” (BioGaia AB, priority 2011, dated 2018)
At least one compound was matched to its structure with a doubt left.

Columns and labels:
Assay type in all cases: cell-based, human
ERK1/2 = ERK1/2 activation by Western blot; details: suppression by 6475 conditioned media, histamine or U0126
Experimental: (§1) THP-1 cells were lysed in ice-cold lysis buffer consisting of 50 mM Tris, pH 7.4, 250 mM NaCl, 5 mM EDTA, 50 mM NaF, 1 mM Na3VO4, 1% v/v Nonidet P40, 0.2% v/v NaN3, and protease and phosphatase inhibitors. Lysates were incubated on ice for 30 min, vortexed every 10 min, and cleared by centrifugation at 13,000×g for 10 min at 4° C. Protein concentrations were measured using the Quant-iT™ Protein Assay kit (Invitrogen) and a Qubit fluorometer according to the manufacturer's instructions. Equal amounts of proteins were loaded onto electrophoresis gels.
(§2) Analysis of ERK1/2 activation was performed using specific phospho-ERK1/2 antibodies. Cell extracts were loaded on a 10% SDS-polyacrylamide gel and transferred to polyvinylidene difluoride membranes (Bio-Rad, Hercules, Calif.). Membranes were blocked overnight at 4° C. in blocking buffer (Li-Cor Biosciences, Lincoln, Nebr.). After several washes, membranes were probed with ERK1/2, phospho-ERK1/2 or β-Actin specific antibodies diluted in blocking buffer (Li-Cor) for 1 h at room temperature. After washes, membranes were incubated with the appropriate horseradish peroxidase-conjugated secondary antibody for 1 h at room temperature, and blots were then developed using a chemiluminescent detection. Analysis of MEK1/2 activation was performed as described above except primary antibody incubation was overnight at 4° C.

[1] = tested on: intracellular cAMP in THP-1 cells (H2 receptor signaling); assay: Intracellular cAMP in TLR2-stimulated THP-1 cells; details: increase caused by strain 6475 supernatant or histamine
Experimental: The H2 receptor is a G protein linked receptor that can activate adenylate cyclase and increase intracellular cAMP. TNF can be inhibited at the level of transcription by cAMP and cAMP analogs. THP-1 cells were stimulated with a TLR2 agonist in the presence of a medium control, 6475 supernatant or histamine with or without an H2 receptor antagonist and intracellular levels of cAMP were measured. […] A synthetic analog of cAMP, dibutyryl cAMP (dcAMP), was added to TLR2-stimulated THP-1 cells and the effect on TNF production was monitored.

[2] = tested on: TNF production from TLR2-activated THP-1 cells; assay: TNF inhibition bioassay and TNF ELISA; details: antagonist added before histamine 10^-5 M; ranitidine, cimetidine 10^-4-10^-6 M; indomethacin 10^-5-10^-6 M
Experimental: In vitro experiments were performed with THP-1 cells (human monocytoid cell line, ATCC, Manassas, Va.) maintained in RPMI (ATCC) and heat-inactivated fetal bovine serum (Invitrogen, Carlsbad, Calif.) at 37° C., 5% CO2. MEK1/2, phospho-MEK1/2, ERK1/2, and phospho-ERK1/2 antibodies and MEK inhibitor U0126 were received from Cell Signaling Technology (Danvers, Mass.), and the β-Actin antibody was received from Abcam (Cambridge, Mass.). All other reagents were received from Sigma (St. Louis, Mo.) unless otherwise stated.
Bacterial supernatants (10 mL) from a 24 h LDMIII culture were filter-sterilized using PVDF membrane filters (0.22 μm pore size, Millipore) and size fractionated as described above. One milliliter of the <3 kDa filtrate was speed vacuum dried and resuspended in RPMI media. These processed supernatant samples are termed conditioned media. All supernatants were normalized by volume to an OD600=1.0. Lyophilized fractions from the HILIC-HPLC separation were resuspended in 400 μL 10 mg/mL ammonium bicarbonate, speed vacuum dried, and resuspended in 400 μL RPMI media. […] THP-1 cells were pelleted (3000× g, 5 min, 4° C.), and quantitative ELISAs were used to determine TNF quantities in THP-1 cell supernatants according to the manufacturer's instructions (R&D Systems, Minneapolis, Minn.).

MEK1/2 = MEK1/2 activation by Western blot; details: suppression by 6475 conditioned media, histamine or U0126
Experimental: as §1, §2

CNC(=C[N+](=O)[O-])NCCSCc1ccc(CN(C)C)o1 [ranitidine]
block of the suppression of ERK1/2 activation (ERK1/2): blocked | block of the increase in cAMP [1]: blocked | block of TNF-inhibition by histamine [2]: could block TNF-inhibition by histamine in a concentration dependent manner | block of the suppression of MEK1/2 activation (MEK1/2): blocked
